The campaign covered roughly 52,000 sequences. About 210 (0.4%) were called active.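 How the source made its calls: active means gene whose silencing raises cell survival under the drug, median off-target-corrected z-score across its silencing RNAs 2 or more; inactive means the rest.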 The list shows a part of the results.

The source of these data is PubChem BioAssay AID1347423 (Functional Genomics Laboratory (NCATS/FGL), 2020).

The assay in a line: Resistance to Poly (ADP-Ribose) Polymerase inhibitor: Gene Identification via Genome-wide siRNA Screen. As to conditions: mouse BRCA2 R2336H ES cells, olaparib, CellTiter-Glo viability; stronger effect = higher value. Put shortly: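 Genome-wide siRNA screen (3 siRNAs/gene, 20 nM) in mouse ES cells carrying hypomorphic BRCA2 R2336H; olaparib 500 nM added 48 h post-transfection, CellTiter-Glo viability 72 h later. Normalized to plate-median negative control; MAD z-scores, gene median, seed-adjusted.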
Background: In ATP-based viability assays light output follows the ATP content of the culture.
For the sequence GGAGCCUUACUGGAGAUUUTT against Ptplb, the z-score is inactive: 0.579.

Take GGGCCAUUGUCAAGGUGAUTT against Olfr632: the z-score is inactive: 0.618.

In the case of GGGCUAAGUGUUGAAUUUATT against Csnk1e, the z-score was inactive: 2.14.

In the case of “GGAUCUCGAGUCUCAUCUCTT against 2410075B13Rik”, the z-score was inactive: -1.4.

On to “GGGAAUUUCAGGCUAUAUUTT against 4732460C16Rik”, for which the z-score was inactive: -2.04.

As for CCCAACAAAAUGCGCGAUUTT against Rasa2, the z-score was inactive: 0.782.

Take GGUAUAGAACUGAAGAAGUTT against ORF28: the z-score was inactive: 0.0528.

Consider GGGCUUAGCUCACCUUCAUTT against Nrk, for which the z-score is inactive: -2.38.

Regarding GGACGAGAAAGCAAAGCAGTT against Mllt10, the z-score was inactive: 0.302.

For the sequence GGUUUUAAAGGAGACCCAGTT against C1qa, the z-score was inactive: 0.762.

Regarding GGCCUUCACUGGUUAAAAUTT against Ankrd6, the z-score was inactive: 1.47.

For the sequence GGGCUCCACAUGUUUGCAUTT against Ehmt1, the z-score was inactive: 1.2.

With GGAGAAGAAGUUCUUGCUGTT against Cnnm2, the z-score is inactive: -1.14.

GGUACAUCGCCAUUUGCCATT against Trhr2: the z-score was inactive: -0.664.

Regarding CGAUUUGCCUUAUUUUUCATT against Litaf, the z-score is inactive: 1.24.

Consider “GGUGUGUGUAUGGUAGGACTT against 5330431N19Rik”, for which the z-score was inactive: 0.629.

Consider GGAUGCUCUGCUAAUGAUUTT against Cadps2, for which the z-score is inactive: -0.939.

Take GGUCUUUUCUACAUGUGGATT against Olfr389: the z-score was inactive: 0.292.

As to CCUUGGGAAUUACCCAGAGTT against Ctag3, the z-score was inactive: -0.56.

Take GCUUCAAACUAGUUCCAAATT against H1foo: the z-score was inactive: -1.33.

In the case of GAUCCGUAUUACCUAUUGUTT against Rex3, the z-score was inactive: -1.18.

GGUACAUACUUAUGAAAAGTT against Havcr1: the z-score is inactive: -0.286.

Take “CCUUGUAUAUGAGCGAAAATT against 1190003K14Rik”: the z-score was inactive: -0.491.

In the case of CGGAGAGACUUUGCCUCUATT against Samd11, the z-score is inactive: 0.507.

As for GCGAUUGGCAGAUUGCUACTT against Tm4sf10, the z-score was inactive: -0.219.

With GGACUUACAAUCCACCAGATT against Ptgds2, the z-score was inactive: 0.792.

On to “GGAAGAGAGAGAAUUACUATT against 3300001P08Rik”, for which the z-score is inactive: -2.68.

With GGAUCAAUCGUUUUGCUUGTT against Epb4.1l2, the z-score is inactive: -0.508.

As to “GCCAUAUCAACUAGUGCAGTT against 6430529G09Rik”, the z-score was inactive: -0.403.

For the sequence GGCUUGUGUCCACUUAGCATT against Olfr1404, the z-score is inactive: -0.375.

With GGAGAAGUUCAGAUCUUUGTT against AI118078, the z-score is inactive: -0.0775.

As to “CCUCUAGAGAUCAAUGAGATT against 2610111M03Rik”, the z-score is inactive: -0.188.

On to AUGUCUCAGGUGCCUAAGGTT against MGC91195, for which the z-score is inactive: -0.247.

For “GGAAGAUGAACAAACGACATT against 1810029G24Rik”, the z-score was inactive: 0.664.

On to GGUUUUCAAAGUCCUGAAUTT against Myo3a, for which the z-score is inactive: 0.331.

Regarding CCGCCUACAUGGUUCUCUUTT against Vat1, the z-score was inactive: 0.238.

Regarding GGGCUUCUUUAGAAGAACCTT against Thrb, the z-score was inactive: 0.308.

For GGACUUUGUUUCUUGAUGGTT against Dkk1, the z-score was inactive: 1.1.

In the case of CCCUGGCCAAACAUAGUGGTT against BC060267, the z-score is inactive: -1.05.

On to GACGACAUUCAUGAAGCGCTT against Rasl2-9, for which the z-score is inactive: -1.11.

Consider GGCUCUUCGUCGGAAGAAUTT against Ccdc9, for which the z-score is inactive: -0.288.

For the sequence GGUACAUGUAUUGUUUCACTT against Cyp2c38, the z-score was inactive: 1.74.

With GGCGUGGUUUCUGUCUGUUTT against Ihpk1, the z-score is inactive: -2.15.

GGAUAUCAUGAAAACACUCTT against Katna1: the z-score is inactive: 1.91.

Take GGGCAAGGAUGUGUUGAAATT against Dhx37: the z-score is inactive: 0.6.

Consider “GGCUUGACUUCUCCAAACATT against A730011L11”, for which the z-score was inactive: 3.27.

Regarding CCACAAUUGGGUAAGAUUATT against Glipr2, the z-score is inactive: -1.43.

With GGGCUUGUUAGCAUCAUCCTT against Olfr382, the z-score was inactive: 1.8.

Turning to CCAUAUAGCCUCAAAAUCGTT against Acat2, the z-score is inactive: -0.833.

In the case of GGAGAUCUACAAGGAAUUCTT against Men1, the z-score was inactive: 0.707.

As for GGCAAUAACAUUGCCUCGGTT against Igf1r, the z-score was inactive: 1.81.

Turning to “GCAGAAAAUCGCUACCCAGTT against D16Ertd480e”, the z-score was inactive: 0.759.

With GGAUAACAGCAAGCUGGCGTT against Taldo1, the z-score was inactive: 0.13.

On to GGACCAAUCCUACAAUAUATT against Cyp19a1, for which the z-score is inactive: 1.53.

Regarding GGAAGAGGAAGAAAUUAUATT against Zbtb33, the z-score is inactive: -0.0676.

GGAAUUCAACAGACAAAUATT against Paip2: the z-score was inactive: -0.149.

As for GGCUAACAAACUCAUACCCTT against Guca2a, the z-score is inactive: -0.789.

As for GACGAAAACCAACAGCACGTT against Rbp2, the z-score was inactive: 0.391.

For GGAGAUGAUUAAGUCUGGATT against Pkm2, the z-score was inactive: -0.653.

As to GGUAAAGCCAAAGAACAAATT against Enpp2, the z-score was inactive: -0.34.

GGUAGCUGAAGAAGACUUCTT against Reg2: the z-score is inactive: -1.39.

As to GGCCCACAGGAACAUCCUATT against Zbtb8, the z-score was inactive: 0.875.

Turning to “GGACAGCUUUGAUUUCAUUTT against C030019F02Rik”, the z-score was inactive: 0.0969.

As to “GGACUGAAUGCAAGUGAAGTT against 4732467B22”, the z-score is inactive: 0.419.

Take GGGUCGUAAUGAGUUCUGGTT against Pparbp: the z-score was inactive: 1.15.

In the case of GGACAACCUGUUGACCUAGTT against Ube1dc1, the z-score was inactive: 0.475.

Consider GGUGGUUAGAUCUUACGCUTT against BC019731, for which the z-score is inactive: 0.746.

Consider GGCCAGUCACUCAACCUUATT against Phc1, for which the z-score was inactive: -2.77.

Take CCCUUUGCCGAAUACAUUUTT against Dpys: the z-score was inactive: -0.531.

Consider “GGCCAGAAAAUUAAGGAGCTT against 2310003H01Rik”, for which the z-score is inactive: -0.329.

“GGUCUUCUUUAGUUCAGAATT against 2810427I04Rik”: the z-score is inactive: -2.04.

Take GCAAUCAAGGUUAAAAUUGTT against Slfn2: the z-score was inactive: 0.305.

As to CCAAACCUGUCUCUUAUCATT against Slco1c1, the z-score is inactive: 0.0923.

Consider CGAAUAUCUGCAUUUAUUGTT against Mbip, for which the z-score was inactive: -0.521.

With GAUGUUUCAGAACAUUCUUTT against Cadps, the z-score is inactive: -0.517.

For GGUAUAAUUUAGGUGACUATT against Epc1, the z-score was inactive: -0.16.

Consider CCUCAAUGAAGACCCAUUATT against Kif1b, for which the z-score is inactive: -1.28.

With GCCAAUUUGACUUGUAAGUTT against Slc22a3, the z-score is inactive: 0.764.

As to GGACAGCCCUUCUUUGUCUTT against Il17rb, the z-score is inactive: -0.467.

GCCGGUAAAAUUAAGGUGATT against Cyp2j9: the z-score was inactive: 0.623.

On to GGGAGUAGAGAAGAAGGUGTT against Dpf3, for which the z-score is inactive: 0.0405.

Regarding GCGACUACUACACAGACGATT against Ext2, the z-score is inactive: 0.425.

In the case of GCUGUGGAGAAGUGCUACUTT against Sprrl5, the z-score was inactive: 2.65.

CCUCUUAUAUGCAUGUGGCTT against Olfr410: the z-score was inactive: 0.22.

As to GGAGAAUAAUAAGCUGGAATT against Hap1, the z-score was inactive: 1.14.

“GUCUGCUCAUCGACAGCUATT against 2310066E14Rik”: the z-score is inactive: 0.456.

Take CCAUAUCUCUAUCUACUGGTT against Rs1h: the z-score was inactive: 0.417.

In the case of GGUGGUUUUCCUCCUCUGUTT against Kdelr3, the z-score was inactive: -0.75.

Consider CCAUCUUACUGAAUACAAATT against Iqgap1, for which the z-score is inactive: 0.145.

As to GGAAAUACCGGAACCAGAATT against Ptdsr, the z-score was inactive: -0.424.

On to GCCUCUUAGUAGAGACAGUTT against Nat6, for which the z-score is inactive: -0.727.

For the sequence CCAUUUAUGGGUUUUCUCUTT against Taar7b, the z-score is inactive: 1.07.

Turning to GCAACUAUUACUUAGCCAUTT against Fgf10, the z-score is inactive: 0.331.

On to “GGAGGAACCCUCAUUUUAGTT against 1110018J18Rik”, for which the z-score was inactive: 0.903.

Take GGGAAAAUUUCAAUGAGAGTT against Slc16a10: the z-score is inactive: -0.742.

For the sequence “GACCAGAUCCAGAAAUCGGTT against 4933434G05Rik”, the z-score was inactive: 0.529.

For the sequence CGAGCAAAUCUCAUUCAAGTT against Oxgr1, the z-score was inactive: 0.347.

In the case of GCCUGUCCUAAACUUGACCTT against Cdh13, the z-score was inactive: -0.339.

Consider CCUUCUCUUUGCUCUAUGUTT against Olfr1284, for which the z-score was inactive: 0.785.

Take GGAAUGAAACCAAGUAUAATT against Calcb: the z-score was inactive: 0.048.

In the case of GGCAUUGCAUUCUCACAUGTT against Gabarapl1, the z-score was inactive: -0.106.

As for GGACUUGGAGACAUUGCUATT against AI447904, the z-score is inactive: -1.21.

For the sequence GCUGUUUCAAAAGUCAUAUTT against Col11a1, the z-score was inactive: -0.673.

As to GGCGUAGGGCCAUAUCAUUTT against Olfr109, the z-score was inactive: 0.253.

Consider CGCAAAAACUGGUGUAACCTT against Arhgef1, for which the z-score was inactive: 0.337.
